This is one part of the list. The data scatter; read single values as rough.
Experiments:
[1] = compound: ClCC(=O)N[C@@H]1CCCc2ccccc12; experiment: log2 mean competition ratio of IA-DTB cysteine labelling (DMSO/compound) (log2 ratio); higher = stronger cysteine engagement by compound; conditions: treatment time: 4 h, cell line lysate: HEK293T
Method: (§1)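 IA-DTB competitive cysteine chemoproteomics in HEK293T RIPA lysate. Lysates were treated with compound 29 or 30 at 50 or 200 µM for 4 h, then IA-DTB (500 µM, 1 h), trypsin-digested, NeutrAvidin-enriched and analysed by diaPASEF. Competition ratio = intensity DMSO / intensity compound (n=4 treated, n=64 DMSO); binding: mean log2 CR ≥ 1 and p ≤ 0.05 plus QC filters. Target is the cysteine site.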

Protein sequences, listed by entry. Tags and fused reporters are not part of them. Lines headed by an entry give the natural chain unless they say otherwise; changes in a name come on top. Residues count along the entry.
UniProt Q68CP9, whole entry, looked up: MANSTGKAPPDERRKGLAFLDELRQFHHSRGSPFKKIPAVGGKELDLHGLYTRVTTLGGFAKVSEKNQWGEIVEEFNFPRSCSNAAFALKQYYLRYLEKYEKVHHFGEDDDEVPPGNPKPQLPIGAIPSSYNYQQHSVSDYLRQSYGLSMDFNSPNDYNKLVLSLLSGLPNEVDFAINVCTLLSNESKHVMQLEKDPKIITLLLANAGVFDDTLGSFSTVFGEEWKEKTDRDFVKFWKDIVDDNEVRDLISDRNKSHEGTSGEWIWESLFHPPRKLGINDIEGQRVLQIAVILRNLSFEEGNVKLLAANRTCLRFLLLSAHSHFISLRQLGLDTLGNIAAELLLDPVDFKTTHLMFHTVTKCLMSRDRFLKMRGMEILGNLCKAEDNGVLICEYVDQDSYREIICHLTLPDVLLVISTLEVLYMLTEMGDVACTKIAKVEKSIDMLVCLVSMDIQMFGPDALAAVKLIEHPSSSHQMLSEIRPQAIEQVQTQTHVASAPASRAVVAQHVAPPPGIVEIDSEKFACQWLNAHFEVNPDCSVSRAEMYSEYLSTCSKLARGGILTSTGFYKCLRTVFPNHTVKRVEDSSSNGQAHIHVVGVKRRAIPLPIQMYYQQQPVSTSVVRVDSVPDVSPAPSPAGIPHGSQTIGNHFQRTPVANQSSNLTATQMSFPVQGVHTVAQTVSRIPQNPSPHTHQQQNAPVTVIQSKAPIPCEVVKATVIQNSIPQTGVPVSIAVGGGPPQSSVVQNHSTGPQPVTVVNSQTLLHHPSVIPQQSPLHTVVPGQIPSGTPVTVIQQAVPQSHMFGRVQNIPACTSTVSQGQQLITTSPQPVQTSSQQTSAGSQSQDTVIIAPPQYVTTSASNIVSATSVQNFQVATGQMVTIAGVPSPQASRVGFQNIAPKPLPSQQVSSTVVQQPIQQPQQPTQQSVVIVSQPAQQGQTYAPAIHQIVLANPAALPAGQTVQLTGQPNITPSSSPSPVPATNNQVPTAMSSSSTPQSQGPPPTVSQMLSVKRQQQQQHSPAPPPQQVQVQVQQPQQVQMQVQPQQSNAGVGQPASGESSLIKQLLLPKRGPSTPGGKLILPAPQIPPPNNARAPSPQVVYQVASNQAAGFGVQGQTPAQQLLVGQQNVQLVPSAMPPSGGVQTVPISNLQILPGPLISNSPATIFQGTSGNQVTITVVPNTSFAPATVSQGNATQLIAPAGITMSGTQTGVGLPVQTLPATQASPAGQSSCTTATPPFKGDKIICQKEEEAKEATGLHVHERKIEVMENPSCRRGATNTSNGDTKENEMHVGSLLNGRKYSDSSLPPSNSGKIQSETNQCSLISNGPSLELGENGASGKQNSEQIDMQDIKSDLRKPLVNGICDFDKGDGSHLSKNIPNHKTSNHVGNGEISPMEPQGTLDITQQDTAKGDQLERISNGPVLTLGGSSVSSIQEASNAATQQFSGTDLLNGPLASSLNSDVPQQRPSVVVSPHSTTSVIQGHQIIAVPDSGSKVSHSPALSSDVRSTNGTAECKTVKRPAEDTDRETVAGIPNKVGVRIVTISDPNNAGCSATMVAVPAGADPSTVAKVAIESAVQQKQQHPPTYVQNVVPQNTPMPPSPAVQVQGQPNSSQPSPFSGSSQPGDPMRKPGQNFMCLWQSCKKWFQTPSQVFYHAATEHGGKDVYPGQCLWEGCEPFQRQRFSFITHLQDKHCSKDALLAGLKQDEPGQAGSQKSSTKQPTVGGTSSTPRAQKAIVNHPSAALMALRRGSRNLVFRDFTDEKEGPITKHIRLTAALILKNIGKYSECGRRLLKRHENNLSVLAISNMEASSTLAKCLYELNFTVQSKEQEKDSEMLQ
UniProt Q6UB99: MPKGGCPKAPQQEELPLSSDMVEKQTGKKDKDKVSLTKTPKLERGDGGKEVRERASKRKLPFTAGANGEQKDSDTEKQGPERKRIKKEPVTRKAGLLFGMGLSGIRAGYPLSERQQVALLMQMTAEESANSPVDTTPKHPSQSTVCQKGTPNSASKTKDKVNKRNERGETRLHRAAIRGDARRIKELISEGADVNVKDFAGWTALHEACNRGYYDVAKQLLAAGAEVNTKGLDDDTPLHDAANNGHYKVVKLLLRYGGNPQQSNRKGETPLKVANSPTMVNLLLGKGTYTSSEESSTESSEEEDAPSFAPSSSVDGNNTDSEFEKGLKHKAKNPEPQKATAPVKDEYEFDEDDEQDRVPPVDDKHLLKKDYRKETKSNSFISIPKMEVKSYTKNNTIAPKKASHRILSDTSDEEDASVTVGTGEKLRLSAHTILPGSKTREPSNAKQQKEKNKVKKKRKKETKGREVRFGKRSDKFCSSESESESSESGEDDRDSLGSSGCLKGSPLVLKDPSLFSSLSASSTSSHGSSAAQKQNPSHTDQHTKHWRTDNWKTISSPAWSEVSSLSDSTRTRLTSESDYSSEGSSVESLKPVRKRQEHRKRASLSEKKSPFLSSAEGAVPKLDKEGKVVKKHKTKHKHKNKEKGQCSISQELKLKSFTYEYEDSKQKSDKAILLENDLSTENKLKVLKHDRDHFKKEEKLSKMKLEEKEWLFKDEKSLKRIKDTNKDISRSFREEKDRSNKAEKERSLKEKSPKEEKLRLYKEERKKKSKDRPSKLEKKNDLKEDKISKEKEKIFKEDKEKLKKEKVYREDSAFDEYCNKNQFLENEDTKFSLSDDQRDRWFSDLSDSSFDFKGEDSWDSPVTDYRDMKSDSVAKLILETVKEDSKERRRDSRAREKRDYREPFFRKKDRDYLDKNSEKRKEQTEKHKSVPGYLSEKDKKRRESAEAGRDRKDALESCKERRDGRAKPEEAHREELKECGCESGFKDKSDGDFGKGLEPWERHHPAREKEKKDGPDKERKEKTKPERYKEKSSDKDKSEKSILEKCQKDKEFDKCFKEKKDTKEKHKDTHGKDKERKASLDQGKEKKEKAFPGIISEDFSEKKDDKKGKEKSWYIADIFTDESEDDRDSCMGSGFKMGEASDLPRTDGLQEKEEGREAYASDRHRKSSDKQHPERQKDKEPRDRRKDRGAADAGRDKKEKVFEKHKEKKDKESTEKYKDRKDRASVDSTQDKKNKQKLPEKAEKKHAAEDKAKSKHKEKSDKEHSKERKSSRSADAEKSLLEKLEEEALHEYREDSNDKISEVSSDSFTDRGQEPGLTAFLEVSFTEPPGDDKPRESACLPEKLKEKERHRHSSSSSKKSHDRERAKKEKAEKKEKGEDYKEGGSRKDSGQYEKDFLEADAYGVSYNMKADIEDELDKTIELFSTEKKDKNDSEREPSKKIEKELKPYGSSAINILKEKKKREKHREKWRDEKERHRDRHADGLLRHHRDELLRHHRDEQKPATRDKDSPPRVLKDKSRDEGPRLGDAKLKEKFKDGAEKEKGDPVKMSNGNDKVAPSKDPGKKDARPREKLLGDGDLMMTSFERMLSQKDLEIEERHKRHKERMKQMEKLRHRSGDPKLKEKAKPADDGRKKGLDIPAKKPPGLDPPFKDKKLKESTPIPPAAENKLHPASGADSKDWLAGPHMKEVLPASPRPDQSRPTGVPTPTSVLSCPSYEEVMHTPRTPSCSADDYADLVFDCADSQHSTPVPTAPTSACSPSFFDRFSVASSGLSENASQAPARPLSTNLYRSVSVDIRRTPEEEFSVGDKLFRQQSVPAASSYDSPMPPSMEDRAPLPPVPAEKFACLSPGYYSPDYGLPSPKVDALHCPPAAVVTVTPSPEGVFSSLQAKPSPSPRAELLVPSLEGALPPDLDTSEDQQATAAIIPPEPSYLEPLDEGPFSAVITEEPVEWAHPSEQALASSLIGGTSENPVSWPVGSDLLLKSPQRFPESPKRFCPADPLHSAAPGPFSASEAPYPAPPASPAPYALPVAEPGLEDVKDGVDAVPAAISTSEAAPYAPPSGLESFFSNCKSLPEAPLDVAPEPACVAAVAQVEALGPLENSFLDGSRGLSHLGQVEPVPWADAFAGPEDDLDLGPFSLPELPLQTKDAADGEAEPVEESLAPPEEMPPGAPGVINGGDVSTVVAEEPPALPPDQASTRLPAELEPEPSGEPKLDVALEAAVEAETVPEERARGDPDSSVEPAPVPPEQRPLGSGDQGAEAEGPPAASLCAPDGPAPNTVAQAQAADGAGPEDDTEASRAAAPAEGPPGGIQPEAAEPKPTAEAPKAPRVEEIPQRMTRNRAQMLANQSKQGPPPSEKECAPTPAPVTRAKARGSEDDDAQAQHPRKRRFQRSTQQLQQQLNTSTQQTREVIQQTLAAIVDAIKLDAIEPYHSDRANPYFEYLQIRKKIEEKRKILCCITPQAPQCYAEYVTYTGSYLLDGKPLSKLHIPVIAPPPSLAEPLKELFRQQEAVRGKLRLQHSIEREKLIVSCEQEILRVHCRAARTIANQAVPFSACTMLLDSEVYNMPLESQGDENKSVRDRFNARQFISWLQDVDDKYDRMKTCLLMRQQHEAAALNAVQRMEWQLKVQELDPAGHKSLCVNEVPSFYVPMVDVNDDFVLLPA
UniProt Q9BZZ5: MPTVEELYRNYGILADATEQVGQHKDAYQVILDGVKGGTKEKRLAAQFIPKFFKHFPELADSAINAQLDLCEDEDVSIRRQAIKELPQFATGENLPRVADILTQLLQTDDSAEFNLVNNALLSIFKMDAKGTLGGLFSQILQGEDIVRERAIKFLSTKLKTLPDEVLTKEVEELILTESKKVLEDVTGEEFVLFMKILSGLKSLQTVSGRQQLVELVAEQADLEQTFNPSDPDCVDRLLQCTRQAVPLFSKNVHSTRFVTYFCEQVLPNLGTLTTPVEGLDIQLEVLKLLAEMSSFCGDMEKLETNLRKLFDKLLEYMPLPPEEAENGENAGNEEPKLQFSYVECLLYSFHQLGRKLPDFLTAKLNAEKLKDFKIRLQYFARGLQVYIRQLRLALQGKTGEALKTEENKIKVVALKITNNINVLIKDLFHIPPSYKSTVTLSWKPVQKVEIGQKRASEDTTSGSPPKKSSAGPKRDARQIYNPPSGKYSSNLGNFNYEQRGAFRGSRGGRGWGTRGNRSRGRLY
UniProt Q92625, 142-166: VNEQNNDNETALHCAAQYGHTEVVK
UniProt Q9NQW6: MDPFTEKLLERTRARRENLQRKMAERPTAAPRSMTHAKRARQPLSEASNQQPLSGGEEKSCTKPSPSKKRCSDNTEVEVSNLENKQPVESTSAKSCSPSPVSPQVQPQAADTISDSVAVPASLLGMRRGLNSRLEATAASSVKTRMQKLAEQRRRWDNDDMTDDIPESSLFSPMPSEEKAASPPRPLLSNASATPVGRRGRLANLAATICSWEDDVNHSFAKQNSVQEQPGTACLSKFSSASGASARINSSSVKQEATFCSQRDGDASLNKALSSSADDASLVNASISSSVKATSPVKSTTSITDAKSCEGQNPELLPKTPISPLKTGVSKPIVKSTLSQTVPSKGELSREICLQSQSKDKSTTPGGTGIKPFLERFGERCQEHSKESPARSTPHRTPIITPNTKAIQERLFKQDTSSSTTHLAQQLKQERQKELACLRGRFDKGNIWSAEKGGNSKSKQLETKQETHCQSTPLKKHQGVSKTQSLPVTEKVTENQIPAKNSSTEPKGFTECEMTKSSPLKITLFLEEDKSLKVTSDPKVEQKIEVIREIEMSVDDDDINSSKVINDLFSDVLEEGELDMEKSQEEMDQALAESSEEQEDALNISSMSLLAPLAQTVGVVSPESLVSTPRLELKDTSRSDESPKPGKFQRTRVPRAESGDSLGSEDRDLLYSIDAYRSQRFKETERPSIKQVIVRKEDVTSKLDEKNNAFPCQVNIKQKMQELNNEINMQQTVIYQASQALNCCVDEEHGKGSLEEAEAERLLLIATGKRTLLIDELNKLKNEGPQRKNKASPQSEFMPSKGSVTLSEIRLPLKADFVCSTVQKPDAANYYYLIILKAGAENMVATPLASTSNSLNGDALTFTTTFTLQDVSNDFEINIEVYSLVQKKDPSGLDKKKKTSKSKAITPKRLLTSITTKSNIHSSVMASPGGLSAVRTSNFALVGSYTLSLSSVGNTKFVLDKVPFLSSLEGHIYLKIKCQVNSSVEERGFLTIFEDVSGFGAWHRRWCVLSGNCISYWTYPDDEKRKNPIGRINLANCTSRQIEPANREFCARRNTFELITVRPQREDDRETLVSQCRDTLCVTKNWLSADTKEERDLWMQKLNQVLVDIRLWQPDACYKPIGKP
UniProt Q8N2F6: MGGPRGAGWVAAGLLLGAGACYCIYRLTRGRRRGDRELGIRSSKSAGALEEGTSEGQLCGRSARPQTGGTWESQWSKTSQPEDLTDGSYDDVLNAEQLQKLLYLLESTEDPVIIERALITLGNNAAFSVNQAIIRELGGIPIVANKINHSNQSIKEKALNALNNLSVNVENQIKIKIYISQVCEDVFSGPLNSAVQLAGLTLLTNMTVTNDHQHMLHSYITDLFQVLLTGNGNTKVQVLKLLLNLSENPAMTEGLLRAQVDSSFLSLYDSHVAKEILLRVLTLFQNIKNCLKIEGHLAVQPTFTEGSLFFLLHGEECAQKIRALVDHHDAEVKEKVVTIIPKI

[2] = compound: ClCC(=O)N[C@H]1CCCc2ccccc12; experiment: as above; conditions: treatment time: 4 h, cell line lysate: HEK293T
Method: as §1

Row | Target | log2 mean competition ratio ([1]; 50 µM) | log2 mean competition ratio ([1]; 200 µM) | log2 mean competition ratio ([2]; 50 µM) | log2 mean competition ratio ([2]; 200 µM)
1 | ARID2 C1271 (UniProt Q68CP9) | -0.0527 | 0.201 | 0.237 | 0.219
2 | ARHGAP22 C366 (UniProt Q7Z5H3) | 0.368 | 0.164 | -0.438 | 0.292
3 | ANKRD11 C146 (UniProt Q6UB99) | -0.368 | -0.152 | -0.0583 | -0.505
4 | API5 C297 (UniProt Q9BZZ5) | -0.0828 | -0.207 | 0.12 | -0.512
5 | ARFGAP1 C351 (UniProt Q8N6T3) | -0.487 | 0.211 | -0.314 | 0.147
6 | ANKS1A C155 (UniProt Q92625) | -0.0818 | -0.583 | -0.607 | -0.738
7 | AP2B1 C95 (UniProt P63010) | -0.15 | -0.101 | -0.0268 | 0.0933
8 | ANLN C469 (UniProt Q9NQW6) | 0.206 | -0.318 | 0.425 | -0.201
9 | ARRB1 C150 (UniProt P49407) | -0.143 | 0.119 | -0.69 | -0.0506
10 | ASCC3 C1638 (UniProt Q8N3C0) | -0.291 | 0.149 | -0.336 | -0.208
11 | ANLN C1076 (UniProt Q9NQW6) | -0.0446 | 0.645 | -0.0892 | 0.667
12 | ANKLE2 C286 (UniProt Q86XL3) | 0.0309 | -0.0438 | -0.249 | 0.0401
13 | APC C207 (UniProt P25054) | -0.291 | -0.472 | -0.0246 | -0.403
14 | ARFGAP3 C312 (UniProt Q9NP61) | 0.247 | 0.0826 | 0.0302 | 0.0665
15 | ARL6IP4 C59 (UniProt Q66PJ3) | -0.104 | 0.425 | 0.0737 | 0.133
16 | ARHGEF28 C783 | -0.0511 | -0.149 | -0.421 | 0.138
17 | ARHGAP35 C620 (UniProt Q9NRY4) | -0.105 | 0.0367 | -0.779 | -0.0855
18 | AP2B1 C144 (UniProt P63010) | -0.148 | -0.183 | 0.155 | -0.0423
19 | ARMC10 C59 (UniProt Q8N2F6) | -0.282 | 0.185 | -0.0739 | 0.0419
20 | ANXA7 C327 (UniProt P20073) | 0.271 | -0.31 | -0.172 | -0.169
21 | APOBEC3D C261 (UniProt Q96AK3) | -0.18 | -0.143 | -0.0827 | -0.164
22 | ANKRD44 C967 (UniProt Q8N8A2) | -0.305 | -0.193 | -0.166 | 0.0777

Random excerpt: 2 records from the list
Row | Target | log2 mean competition ratio ([1]; 50 µM) | log2 mean competition ratio ([1]; 200 µM) | log2 mean competition ratio ([2]; 50 µM) | log2 mean competition ratio ([2]; 200 µM)
11 | ANLN C1076 (UniProt Q9NQW6) | -0.0446 | 0.645 | -0.0892 | 0.667
5 | ARFGAP1 C351 (UniProt Q8N6T3) | -0.487 | 0.211 | -0.314 | 0.147
